{"sequences": {"note": "Amino acid sequences for entries named in this document (tags omitted).", "UniProt Q99623": "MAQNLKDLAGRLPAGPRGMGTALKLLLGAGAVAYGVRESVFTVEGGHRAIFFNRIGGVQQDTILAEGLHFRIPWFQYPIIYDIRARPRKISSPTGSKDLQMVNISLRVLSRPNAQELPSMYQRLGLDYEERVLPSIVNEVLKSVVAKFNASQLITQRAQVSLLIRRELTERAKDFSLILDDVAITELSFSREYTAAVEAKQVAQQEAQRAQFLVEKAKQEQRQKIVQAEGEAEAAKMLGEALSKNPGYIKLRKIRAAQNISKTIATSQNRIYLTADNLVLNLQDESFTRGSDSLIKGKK", "UniProt P17931": "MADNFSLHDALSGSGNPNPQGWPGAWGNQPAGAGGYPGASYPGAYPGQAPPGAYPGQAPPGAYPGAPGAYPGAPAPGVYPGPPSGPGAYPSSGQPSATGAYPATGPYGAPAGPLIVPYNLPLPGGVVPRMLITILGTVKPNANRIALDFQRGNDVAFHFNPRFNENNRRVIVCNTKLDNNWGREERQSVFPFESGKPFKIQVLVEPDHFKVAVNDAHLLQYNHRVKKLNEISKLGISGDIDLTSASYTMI"}, "source": "paper PMC12590881", "key": {"[1]": {"target": "Prohibitin 2 (PHB2) (human (endogenous in HeLa)) (UniProt Q99623)", "assay": "proximity ligation; Duolink in situ PLA, HeLa Parkin cells treated with OA, fixed and permeabilised; rabbit anti-LGALS3 and mouse anti-PHB2"}, "[2]": {"target": "Prohibitin 2 (PHB2) (human (endogenous in HeLa)) (UniProt Q99623)", "assay": "proximity ligation; Duolink in situ PLA, HeLa Parkin cells treated with DMSO (basal), fixed and permeabilised; rabbit anti-LGALS3 and mouse anti-PHB2"}}, "note": "No constants are given. Whether binding was seen depends on the method and setting. Binding seen in cells or lysates may run through a third protein. Some results given as binding are weak or reduced against the parent protein; the word gives no strength."}
{"substance": "Galectin-3 (from UniProt P17931 1-250)", "values": [{"measurement": "binding", "setting": "[1]", "result": "binds"}, {"measurement": "binding", "setting": "[2]", "result": "binds weakly"}]}
